# Patent publication US20220204489A1, “ARYLSULFONYLTHIOPHENECARBOXAMIDES AND ARYLSULFONYLFURANCARBOXAMIDES AS Kv3 POTASSIUM CHANNEL ACTIVATORS” (H. Lundbeck A/S, priority 2019, published 2022)
# At least one structure is not confirmed: it was looked up by name or label, or the drawing left a doubt.
# Molecular target: T1, hKv3.1b (Homo sapiens, UniProt P48547)
# T1 construct: expressed in transfected cells
# T1 sequence (P48547 1-585 isoform P48547-2): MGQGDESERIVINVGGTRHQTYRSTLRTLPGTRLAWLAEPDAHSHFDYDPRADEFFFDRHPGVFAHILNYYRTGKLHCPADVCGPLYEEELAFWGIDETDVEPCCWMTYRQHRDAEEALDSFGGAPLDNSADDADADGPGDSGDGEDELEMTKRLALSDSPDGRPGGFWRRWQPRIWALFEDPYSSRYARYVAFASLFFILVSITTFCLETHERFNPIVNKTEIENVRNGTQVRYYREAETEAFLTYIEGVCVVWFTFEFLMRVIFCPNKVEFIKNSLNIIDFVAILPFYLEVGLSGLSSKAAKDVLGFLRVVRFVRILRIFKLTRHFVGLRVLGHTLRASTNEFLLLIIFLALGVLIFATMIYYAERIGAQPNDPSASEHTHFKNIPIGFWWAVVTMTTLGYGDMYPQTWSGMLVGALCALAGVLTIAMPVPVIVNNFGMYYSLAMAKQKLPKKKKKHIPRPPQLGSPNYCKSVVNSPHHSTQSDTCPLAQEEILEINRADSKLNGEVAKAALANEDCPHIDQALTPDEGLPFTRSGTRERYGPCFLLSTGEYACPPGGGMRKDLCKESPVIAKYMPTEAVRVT
# Experiment: QPatch automated whole-cell patch-clamp, shift of voltage threshold for channel activation
# Assay type: cell-based
# Details: HEK-293 cells stably expressing hKv3.1b
# Experimental: HEK-293 cells stably expressing hKv3.1b was used for the experiments. Cells were cultured in DMEM medium supplemented with 10% Fetal Bovine Serum, 100 ug/mL Geneticidin and 100 u/mL Penicillin/Streptomycin (all from Gibco). Cells were grown to 80-90% confluency at 37° C. and 5% CO2. On the day of the experiment the cells were detached from the tissue culture flasks by Detachin and resuspended in serum free medium containing 25 mM HEPES and transferred to the cell hotel of the QPatch. The cells were used for experiments 0-5 hours after detachment.
# Patch-clamp recordings were performed using the automated recording system QPatch-16× (Sophion Bioscience, Denmark). Cells were centrifuged, SFM removed and the cells were resuspended in extracellular buffer containing (in mM): 145 NaCl, 4 KCl, 1 MgCl2, 2 CaCl2, 10 HEPES and 10 glucose (added fresh on the day of experiment); pH 7.4 adjusted with NaOH, 305 mOsm adjusted with sucrose. […]
# Leak subtraction protocol was applied at −33% of the sweep amplitude, and serial resistance values were constantly monitored. […]
# Current voltage relationships were plotted from the peak current at the individual voltage steps normalized to the vehicle addition at 10 mV. […] The concentration needed to shift the threshold 5 mV was readout from this curve (ECdelta5 mV).
structure (smiles),measurement,setting,value
"Cc1ccc(S(=O)(=O)c2ccc(C(=O)NCc3ncn(C)n3)o2)cc1 [Compound 26, 5-(4-methylbenzene-1-sulfonyl)-N-[(1-methyl-1H-1,2,4-triazol-3-yl)methyl]furan-2-carboxamide]",ECdelta5mV,"concentration needed to shift the threshold 5 mV, read from fitted concentration response curve",1800 nM
same,Max threshold shift,"maximum absolute shift of activation threshold to more hyperpolarized potentials at tested concentrations (0.37, 1.11, 3.33, 10, 30 μM)",21 mV
